Results are given in words; binding and its absence hold for the method and conditions named. In cells and extracts the contact can be indirect. A yes stands for co-enrichment or nearness to the bait. Other partners may have been found.
Biological target: GFP-tagged talin 1 R2 domain, wild type (mouse) (UniProt P26039)
Assay: affinity purification with mass spectrometry

The chains behind the UniProt entries cited, without tags or fusion partners. Where a name states a change or a piece, a line headed by the entry shows the natural chain unless it says otherwise.
UniProt P26039: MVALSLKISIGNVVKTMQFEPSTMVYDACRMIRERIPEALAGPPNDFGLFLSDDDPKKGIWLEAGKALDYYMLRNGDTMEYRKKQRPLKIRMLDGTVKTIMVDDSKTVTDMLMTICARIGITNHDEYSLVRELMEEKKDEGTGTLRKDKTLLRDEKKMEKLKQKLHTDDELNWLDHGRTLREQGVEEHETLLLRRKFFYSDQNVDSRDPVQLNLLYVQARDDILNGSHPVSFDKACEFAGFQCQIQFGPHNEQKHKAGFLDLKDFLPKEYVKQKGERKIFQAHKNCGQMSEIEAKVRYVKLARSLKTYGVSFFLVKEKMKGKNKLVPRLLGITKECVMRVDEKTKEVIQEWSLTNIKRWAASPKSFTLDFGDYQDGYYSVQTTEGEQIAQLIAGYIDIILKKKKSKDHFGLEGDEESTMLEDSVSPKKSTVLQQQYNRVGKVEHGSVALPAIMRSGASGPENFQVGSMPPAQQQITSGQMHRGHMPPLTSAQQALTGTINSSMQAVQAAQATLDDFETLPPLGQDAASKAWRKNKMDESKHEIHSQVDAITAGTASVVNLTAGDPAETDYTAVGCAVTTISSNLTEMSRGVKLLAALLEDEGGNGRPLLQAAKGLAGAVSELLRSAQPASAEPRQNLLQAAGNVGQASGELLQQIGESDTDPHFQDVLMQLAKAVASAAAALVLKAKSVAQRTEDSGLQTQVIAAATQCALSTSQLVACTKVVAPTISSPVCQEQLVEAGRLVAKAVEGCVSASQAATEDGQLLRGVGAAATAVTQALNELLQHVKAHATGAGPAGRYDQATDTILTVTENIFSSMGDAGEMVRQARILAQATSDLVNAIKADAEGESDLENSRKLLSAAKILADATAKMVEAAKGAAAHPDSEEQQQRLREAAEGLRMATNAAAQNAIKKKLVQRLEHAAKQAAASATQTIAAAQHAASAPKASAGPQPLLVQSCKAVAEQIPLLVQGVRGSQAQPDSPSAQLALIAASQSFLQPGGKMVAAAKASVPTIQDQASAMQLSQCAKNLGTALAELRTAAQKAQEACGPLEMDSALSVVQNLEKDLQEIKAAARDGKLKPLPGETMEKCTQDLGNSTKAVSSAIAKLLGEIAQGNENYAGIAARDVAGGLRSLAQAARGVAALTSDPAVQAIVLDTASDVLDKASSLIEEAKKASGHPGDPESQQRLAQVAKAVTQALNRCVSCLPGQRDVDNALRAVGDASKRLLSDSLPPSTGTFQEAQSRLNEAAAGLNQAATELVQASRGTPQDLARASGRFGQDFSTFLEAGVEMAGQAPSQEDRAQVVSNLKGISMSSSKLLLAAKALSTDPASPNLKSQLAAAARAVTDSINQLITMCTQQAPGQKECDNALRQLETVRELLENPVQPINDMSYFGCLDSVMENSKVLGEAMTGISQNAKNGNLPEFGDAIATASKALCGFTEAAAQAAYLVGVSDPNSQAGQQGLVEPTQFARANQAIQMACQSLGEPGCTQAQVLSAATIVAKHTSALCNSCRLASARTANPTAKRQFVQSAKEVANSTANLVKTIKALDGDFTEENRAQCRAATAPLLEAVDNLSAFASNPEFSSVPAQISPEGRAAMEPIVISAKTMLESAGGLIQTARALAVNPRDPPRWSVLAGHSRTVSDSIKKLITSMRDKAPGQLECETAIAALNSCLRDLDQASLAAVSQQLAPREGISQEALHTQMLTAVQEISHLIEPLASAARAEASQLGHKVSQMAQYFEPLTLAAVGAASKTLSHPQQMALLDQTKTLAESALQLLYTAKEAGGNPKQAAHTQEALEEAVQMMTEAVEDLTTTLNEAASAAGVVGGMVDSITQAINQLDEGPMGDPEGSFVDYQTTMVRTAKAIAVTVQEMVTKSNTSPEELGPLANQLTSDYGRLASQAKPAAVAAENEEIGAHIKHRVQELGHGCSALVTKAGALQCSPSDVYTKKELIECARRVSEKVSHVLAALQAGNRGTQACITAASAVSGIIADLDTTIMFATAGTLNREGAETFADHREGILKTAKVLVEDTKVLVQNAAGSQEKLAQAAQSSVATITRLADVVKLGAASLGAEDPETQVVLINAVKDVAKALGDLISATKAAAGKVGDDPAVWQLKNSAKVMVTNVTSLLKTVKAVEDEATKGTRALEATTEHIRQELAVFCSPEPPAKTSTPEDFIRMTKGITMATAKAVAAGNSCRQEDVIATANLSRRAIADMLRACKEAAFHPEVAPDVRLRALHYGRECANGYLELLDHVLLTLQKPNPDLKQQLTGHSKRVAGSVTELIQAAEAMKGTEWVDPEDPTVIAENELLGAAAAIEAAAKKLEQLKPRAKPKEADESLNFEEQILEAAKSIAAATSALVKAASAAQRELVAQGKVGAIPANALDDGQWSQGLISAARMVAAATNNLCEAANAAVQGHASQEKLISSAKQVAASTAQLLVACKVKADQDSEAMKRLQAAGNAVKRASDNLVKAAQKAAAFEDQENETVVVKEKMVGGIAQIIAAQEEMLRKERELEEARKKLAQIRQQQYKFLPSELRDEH

- binding: binds
Substance: ARPC5L (endogenous, found by mass spectrometry) (from UniProt Q9BPX5 1-153)
